Reference: PMC12796488
These are yes or no findings as the source states them, for the method shown. Some results given as binding are weak or reduced against the parent protein; the word gives no strength.

The chains behind the UniProt entries cited, without tags or fusion partners.
UniProt Q9HT20: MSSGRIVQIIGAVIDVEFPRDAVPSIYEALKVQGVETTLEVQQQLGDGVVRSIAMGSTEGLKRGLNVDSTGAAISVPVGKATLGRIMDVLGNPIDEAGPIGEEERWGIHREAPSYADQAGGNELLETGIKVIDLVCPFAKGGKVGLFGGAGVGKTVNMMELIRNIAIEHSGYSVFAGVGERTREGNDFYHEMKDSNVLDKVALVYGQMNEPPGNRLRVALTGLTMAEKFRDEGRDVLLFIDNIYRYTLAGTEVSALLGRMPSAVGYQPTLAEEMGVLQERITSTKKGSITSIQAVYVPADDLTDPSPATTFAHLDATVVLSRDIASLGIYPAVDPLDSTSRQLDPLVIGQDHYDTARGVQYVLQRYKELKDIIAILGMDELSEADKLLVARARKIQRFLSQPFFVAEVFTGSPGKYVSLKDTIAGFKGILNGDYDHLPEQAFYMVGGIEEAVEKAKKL
UniProt Q9HT18: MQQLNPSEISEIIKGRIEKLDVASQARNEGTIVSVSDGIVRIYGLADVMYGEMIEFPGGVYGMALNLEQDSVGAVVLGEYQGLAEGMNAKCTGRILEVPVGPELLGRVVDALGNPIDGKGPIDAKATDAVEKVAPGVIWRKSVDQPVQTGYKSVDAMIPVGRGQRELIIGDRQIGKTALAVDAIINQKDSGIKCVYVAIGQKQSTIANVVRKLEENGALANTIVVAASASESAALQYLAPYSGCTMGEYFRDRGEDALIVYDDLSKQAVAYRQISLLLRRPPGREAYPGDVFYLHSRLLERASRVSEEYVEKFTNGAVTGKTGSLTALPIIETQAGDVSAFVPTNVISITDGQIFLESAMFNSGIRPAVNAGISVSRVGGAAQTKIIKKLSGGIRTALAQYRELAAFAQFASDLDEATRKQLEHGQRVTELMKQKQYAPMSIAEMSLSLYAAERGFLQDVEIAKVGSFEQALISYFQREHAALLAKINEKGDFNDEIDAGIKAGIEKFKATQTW
UniProt Q9HT15: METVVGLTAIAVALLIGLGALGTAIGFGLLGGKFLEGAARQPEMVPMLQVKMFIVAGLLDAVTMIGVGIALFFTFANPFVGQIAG

Experiments:
[1] = biological target: P. aeruginosa ATP synthase subunit β (Pseudomonas aeruginosa) (UniProt Q9HT20); experiment: cryo-EM structure; purified F1Fo complex in digitonin; 10 mM MgATP, 22 °C for 30 s before freezing; State 2 maps at ~3.5 Å; classes with εCTD "up" and "down"; both purified
[2] = biological target: P. aeruginosa ATP synthase subunit α (Pseudomonas aeruginosa) (UniProt Q9HT18); experiment: as above
[3] = biological target: T1, P. aeruginosa ATP synthase subunit γ (Pseudomonas aeruginosa) (UniProt Q9HT19); experiment: as above
T1 sequence: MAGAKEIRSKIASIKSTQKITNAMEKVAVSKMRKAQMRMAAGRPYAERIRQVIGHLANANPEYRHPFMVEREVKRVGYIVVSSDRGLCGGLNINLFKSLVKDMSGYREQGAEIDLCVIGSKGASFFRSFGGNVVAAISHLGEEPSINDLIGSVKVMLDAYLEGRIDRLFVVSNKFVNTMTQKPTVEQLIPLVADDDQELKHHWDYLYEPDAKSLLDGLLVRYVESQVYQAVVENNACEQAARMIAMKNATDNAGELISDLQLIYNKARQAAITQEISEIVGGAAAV

[4] = biological target: P. aeruginosa ATP synthase subunit β (Pseudomonas aeruginosa) (UniProt Q9HT20); experiment: cryo-EM structure; purified F1Fo complex in digitonin; 10 mM MgADP and 230 uM compound #5 added, 1 h on ice before freezing; maps at 2.0-3.0 Å; both purified
[5] = biological target: P. aeruginosa ATP synthase subunit α (Pseudomonas aeruginosa) (UniProt Q9HT18); experiment: as above
[6] = biological target: P. aeruginosa ATP synthase subunit c (Pseudomonas aeruginosa) (UniProt Q9HT15); experiment: as above
[7] = biological target: T1, P. aeruginosa ATP synthase subunit γ (Pseudomonas aeruginosa); experiment: as above

Measured: binding

B1: P. aeruginosa ATP synthase subunit ε (protein, UniProt Q9HT21 1-141)
chain: MAITVHCDIVSAEAEIFSGLVEMVIAHGALGDLGIAPGHAPLITDLKPGPIRLVKQGGEQEVYYISGGFLEVQPNMVKVLADTVVRAGDLDEAAAQEALKAAEKALQGKGAEFDYSAAAARLAEAAAQLRTVQQLRKKFGG
binds: all assays above
